Data published in article doi:10.1101/572826.
Results are given in words; binding and its absence hold for the method and conditions named. For some assays here: A result given as binding can be weak or reduced; the word gives no strength. For some assays here: Where a sequence is shown, tags or fusion partners need not be part of it. For some assays here: Binding seen in cells or lysates may run through a third protein. Blank lines part the entries; values can stand above or below the substance they belong to.

Amino acid sequences for entries named in this document (tags omitted). A change or cut given only in a name is not applied to a line headed by its entry.
UniProt Q4F883: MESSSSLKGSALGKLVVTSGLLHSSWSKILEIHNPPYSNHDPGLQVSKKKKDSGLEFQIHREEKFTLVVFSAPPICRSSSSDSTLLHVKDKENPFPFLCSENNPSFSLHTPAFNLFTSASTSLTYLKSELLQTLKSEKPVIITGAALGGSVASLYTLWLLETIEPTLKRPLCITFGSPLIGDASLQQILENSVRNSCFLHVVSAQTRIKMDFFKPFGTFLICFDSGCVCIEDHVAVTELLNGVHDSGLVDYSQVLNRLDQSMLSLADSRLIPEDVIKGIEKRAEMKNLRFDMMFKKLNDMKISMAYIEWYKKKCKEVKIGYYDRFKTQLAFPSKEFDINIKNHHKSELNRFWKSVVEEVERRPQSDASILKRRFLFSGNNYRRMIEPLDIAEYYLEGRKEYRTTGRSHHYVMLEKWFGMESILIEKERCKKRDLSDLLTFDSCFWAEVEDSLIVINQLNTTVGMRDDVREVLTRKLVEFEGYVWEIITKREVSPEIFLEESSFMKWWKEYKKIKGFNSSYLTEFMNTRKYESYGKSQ

Legend:
[1] = target: tomato PAD4 (SlPAD4), LexA BD fusion for yeast two-hybrid (tomato (Solanum lycopersicum)); test: two-hybrid
[2] = target: Brachypodium distachyon PAD4 (BdPAD4), LexA BD fusion for yeast two-hybrid (Brachypodium distachyon) (UniProt I1IMT7); test: two-hybrid
[3] = target: 3xFLAG-SlEDS1 (pAtEDS1:3xFLAG-SlEDS1) (tomato (Solanum lycopersicum)); test: co-IP
[4] = target: T1, AtEDS1-3xFLAG (pEDS1:gEDS1-3xFLAG) (Arabidopsis thaliana (Col)) (UniProt Q9XF23); test: co-IP
T1 sequence: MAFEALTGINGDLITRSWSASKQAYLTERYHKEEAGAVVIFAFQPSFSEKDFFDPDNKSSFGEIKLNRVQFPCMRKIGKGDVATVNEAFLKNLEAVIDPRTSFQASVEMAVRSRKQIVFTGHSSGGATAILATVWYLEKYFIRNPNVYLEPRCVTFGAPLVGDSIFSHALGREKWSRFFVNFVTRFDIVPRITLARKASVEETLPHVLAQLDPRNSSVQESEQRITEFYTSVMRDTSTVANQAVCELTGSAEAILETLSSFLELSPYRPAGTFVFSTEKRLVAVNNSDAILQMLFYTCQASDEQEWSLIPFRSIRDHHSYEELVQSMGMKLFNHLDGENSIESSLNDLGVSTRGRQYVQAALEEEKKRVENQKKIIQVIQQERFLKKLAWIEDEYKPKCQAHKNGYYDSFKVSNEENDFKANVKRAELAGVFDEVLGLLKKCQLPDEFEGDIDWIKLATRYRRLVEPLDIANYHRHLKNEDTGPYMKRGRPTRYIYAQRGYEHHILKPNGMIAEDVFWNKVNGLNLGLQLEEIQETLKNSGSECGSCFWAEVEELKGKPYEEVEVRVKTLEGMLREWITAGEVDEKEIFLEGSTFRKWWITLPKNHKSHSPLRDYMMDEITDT

[5] = target: T2, 3xFLAG-AtEDS1 (pAtEDS1:3xFLAG-AtEDS1) (Arabidopsis thaliana (Col)) (UniProt Q9XF23); test: co-IP
T2 sequence: T1 sequence

[6] = target: T3, Arabidopsis PAD4 (AtPAD4), LexA BD fusion for yeast two-hybrid (Arabidopsis thaliana (Col)) (UniProt Q9S745); test: two-hybrid
T3 sequence: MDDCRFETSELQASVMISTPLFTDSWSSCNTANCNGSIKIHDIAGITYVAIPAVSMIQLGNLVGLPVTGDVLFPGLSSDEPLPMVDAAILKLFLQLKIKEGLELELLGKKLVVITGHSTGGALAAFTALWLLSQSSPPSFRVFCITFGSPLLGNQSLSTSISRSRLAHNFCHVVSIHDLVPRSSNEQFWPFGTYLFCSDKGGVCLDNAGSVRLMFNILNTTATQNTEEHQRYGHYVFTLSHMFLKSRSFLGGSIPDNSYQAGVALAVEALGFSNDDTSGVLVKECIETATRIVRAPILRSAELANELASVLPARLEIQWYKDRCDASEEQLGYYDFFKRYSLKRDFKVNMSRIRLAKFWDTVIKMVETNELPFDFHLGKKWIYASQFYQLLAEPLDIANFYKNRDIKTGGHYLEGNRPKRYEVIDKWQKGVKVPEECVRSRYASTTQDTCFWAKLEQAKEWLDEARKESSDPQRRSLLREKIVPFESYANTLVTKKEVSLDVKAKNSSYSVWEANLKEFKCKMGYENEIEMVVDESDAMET

binding [1]: no binding
binding [2]: binds
Substance: Brachypodium distachyon EDS1 (BdEDS1), Gal4 AD fusion for yeast two-hybrid (from UniProt A0A0Q3LC91)

binding [3]: binds
binding [4]: binds
Substance: AtSAG101-YFP (35S:gAtSAG101-YFP) (from UniProt Q4F883)

binding [5]: no binding
Substance: YFP-HvPAD4 (pAtPAD4:YFP-HvPAD4) (barley (Hordeum vulgare))

binding [4]: no binding
Substance: NbSAG101b-GFP (35S:NbSAG101b-GFP) (Nicotiana benthamiana)

binding [5]: no binding
Substance: YFP-SlPAD4 (pAtPAD4:YFP-SlPAD4) (tomato (Solanum lycopersicum))

binding [1]: binds
binding [2]: binds
binding [6]: binds
Substance: tomato EDS1 (SlEDS1), Gal4 AD fusion for yeast two-hybrid (from UniProt A0A3Q7H109)

binding [4]: no binding
Substance: NbSAG101a-GFP (35S:NbSAG101a-GFP) (Nicotiana benthamiana)
